The text below walks through data of publication PMC7819943, “Rice protein-binding microarrays: a tool to detect cis-acting elements near promoter regions in rice”.

Chains of the proteins cited; added tags and fusions are not shown.
UniProt Q0JBA9, entry or part of it: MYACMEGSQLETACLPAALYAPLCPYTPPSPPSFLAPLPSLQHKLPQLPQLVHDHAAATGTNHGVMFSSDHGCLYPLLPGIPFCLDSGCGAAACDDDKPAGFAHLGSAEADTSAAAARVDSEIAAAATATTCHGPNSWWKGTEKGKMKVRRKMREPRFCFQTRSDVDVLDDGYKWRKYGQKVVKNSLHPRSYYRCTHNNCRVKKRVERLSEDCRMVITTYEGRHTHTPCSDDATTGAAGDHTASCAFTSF

Some of the results follow.

For the assay, the target named is OsWRKY34 (Oryza sativa, UniProt Q0JBA9 1-250). Put plainly: protein-binding microarray (RPBM); PBS, 2% BSA, 51.3 ng/ul salmon testes DNA, 50 uM zinc acetate, 200 nM TF, 25 C, 1 h; high values mean tight binding. The following applies: protein: recombinant; tags: N-terminal polyhistidine and DsRed monomer fusion (pET32a); label: CyDye5-dUTP incorporated in the synthesized complementary strand; 3' TTTTT single-stranded linker to array surface; dsDNA, one strand shown. A digest of the protocol:
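Ni–NTA purification followed expression in E. coli BL21-CodonPlus of transcription factors fused N-terminally to a polyhistidine tag and DsRed. At 200 nM in PBS with 2% BSA, salmon testes DNA and 50 µM zinc acetate, the protein was incubated for 1 h at 25 °C with a custom Agilent array that had been primer-extended with Cy5-dUTP and blocked with 2% BSA. After washing, the array was read on an Axon 4000B scanner. The binding signal is per-feature fluorescence intensity in arbitrary units.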
For the sequence “ATGTATATTGTGCTGCAGTTTCTCCCTTTCATTTTTATGTCGGAGTCACCTAGTGCAG”, the binding signal was 9140 fluorescence intensity (a.u.). Turning to “TAAATTAAATGTTTGAGTTATATCTTGTTTGTATTTTTAACGGAGTCACCTAGTGCAG”, the binding signal was 8410 fluorescence intensity (a.u.).

Consider “AGCCAATTAGTTTGCTCTCTAGCTAGCTTATTATTGTTTACGGAGTCACCTAGTGCAG”, for which the binding signal is 8170 fluorescence intensity (a.u.). For the sequence “GAGAGTATTATAGATATTGGTGTTTGTGTACGGGTGATACCGGAGTCACCTAGTGCAG”, the binding signal is 8040 fluorescence intensity (a.u.). As for “ATATGTGGTTGGTTCCTACCGCTTACTGGTTATGGTTGGTCGGAGTCACCTAGTGCAG”, the binding signal is 8380 fluorescence intensity (a.u.). In the case of “ACGTGTCGTTGACTTTTTATCACACGTTTAGCCATTCGTCCGGAGTCACCTAGTGCAG”, the binding signal is 30200 fluorescence intensity (a.u.).

“GTGTGTGGAGGAGTTGAGGAAGAAGAAGGGTTAGGGACACCGGAGTCACCTAGTGCAG”: the binding signal is 8940 fluorescence intensity (a.u.).

Turning to “GCCGCTACATTGCACACATCAACACTAGCTTTGCATCCGTCGGAGTCACCTAGTGCAG”, the binding signal is 9030 fluorescence intensity (a.u.). To “TTTCTTTCCTTTTCCTTTTTTATTCTCGTCTAGTATTATTCGGAGTCACCTAGTGCAG” belongs 8230 fluorescence intensity (a.u.). Regarding “ACCTCATCCTCATTCGTCACCACTAGTCCTCGCTGTTGTTCGGAGTCACCTAGTGCAG”, the binding signal is 12000 fluorescence intensity (a.u.). Take “TGCCAGTTTCTTGTCCAATCGAGGAGCTCTGTACCAATAACGGAGTCACCTAGTGCAG”: the binding signal was 8740 fluorescence intensity (a.u.). The value for “CTGAGCCATACACGAGCCACATATCATATCAGCTGGACGACGGAGTCACCTAGTGCAG” was 9380 fluorescence intensity (a.u.); that for “GCATCGGCTTCTCTCCTCCAACTCCGGCGGGTTAGGGTTTCGGAGTCACCTAGTGCAG” was 8500 fluorescence intensity (a.u.); that for “GACACATTACACCACACACGTAGCAAAACACATCGTACGTCGGAGTCACCTAGTGCAG” was 8430 fluorescence intensity (a.u.). “CTCGTCTACTCTTGCATACACAACACACAACTACTCCCTACGGAGTCACCTAGTGCAG”: the binding signal is 8900 fluorescence intensity (a.u.). “GTTGCAAGTTGCCTCGCCGCACGGGCTCCCGTCACGACTCCGGAGTCACCTAGTGCAG”: the binding signal was 9580 fluorescence intensity (a.u.). Turning to “ACGTCTTACCCCACACGACCAAATTATGGCCTAATCACACCGGAGTCACCTAGTGCAG”, the binding signal was 8100 fluorescence intensity (a.u.). With “TCCTCCAAATCCCAACCCACCTCACCGATCCCATCTCAATCGGAGTCACCTAGTGCAG”, the binding signal was 8040 fluorescence intensity (a.u.). The value for “TAGGCTGTGTTTAGTTCATCGCAAAGTTTAGATTTTGGTTCGGAGTCACCTAGTGCAG” was 11200 fluorescence intensity (a.u.); that for “AACTCATGCTTTAGTACGTTCTCTGTTCTTTTTTGTTATCCGGAGTCACCTAGTGCAG” was 10800 fluorescence intensity (a.u.). The value for “CCCGTCGCCAAGCGCCACCACCACCCCTTCGCGCCGCCGCCGGAGTCACCTAGTGCAG” was 8060 fluorescence intensity (a.u.). To “CTCCGGCCTTTTAATTGGTGTTCTTGTTGGGCCGAAATGTCGGAGTCACCTAGTGCAG” belongs 11900 fluorescence intensity (a.u.); to “TGTGGGTATGGGGATGATTTTGTACCCGTGATAGGTGTGGCGGAGTCACCTAGTGCAG”, 13100 fluorescence intensity (a.u.). Regarding “GCAATACACCTGATTTGATACTTCTTCCGATATAATACTCCGGAGTCACCTAGTGCAG”, the binding signal was 8900 fluorescence intensity (a.u.). For “ACAAGCTGAGATGGTTAATTGTTTATGTAGATCATTAGTTCGGAGTCACCTAGTGCAG”, the binding signal is 8640 fluorescence intensity (a.u.).

For “CCCACATACACGTCATGCCAATGCCACTCTCGACGAGAAACGGAGTCACCTAGTGCAG”, the binding signal was 8820 fluorescence intensity (a.u.). Take “CCTGTTTGACCATATCGCTAGCCAACACTTGATATTTTACCGGAGTCACCTAGTGCAG”: the binding signal was 9610 fluorescence intensity (a.u.). “TCTGACTATTTCCGATCATTTTCATCACTAATCTCACACACGGAGTCACCTAGTGCAG”: the binding signal was 8070 fluorescence intensity (a.u.).

In the case of “CCACCGATTCCTCTCCACCGCTCTTTCCGCCCGCGCGATGCGGAGTCACCTAGTGCAG”, the binding signal was 10600 fluorescence intensity (a.u.). With “GCCGCCGCCGCCGCCGCACCGCCACCGCTCTCTCCCGCCGCGGAGTCACCTAGTGCAG”, the binding signal was 8940 fluorescence intensity (a.u.). To “TCTAAGATATTATTTTTACGTGTCGTCCCATTACCGATATCGGAGTCACCTAGTGCAG” belongs 9500 fluorescence intensity (a.u.); to “GTTGCGTGGACATGGTGGTGGGTAGTGATGGTGGCAAACGCGGAGTCACCTAGTGCAG”, 11400 fluorescence intensity (a.u.); to “CAGCTCATCAAGGTCAAATCAAATCATTCACGTCGTAACGCGGAGTCACCTAGTGCAG”, 8100 fluorescence intensity (a.u.). For “TTGTGGAGTGTTCTTTCTGTAGTTGTTGCCTGCACTACACCGGAGTCACCTAGTGCAG”, the binding signal was 13000 fluorescence intensity (a.u.). To “CCCCTGTCTCTGTCTCTGTCTCTGCCGTTTGTATAGTAGCCGGAGTCACCTAGTGCAG” belongs 9300 fluorescence intensity (a.u.).

In the case of “TCTCTCTCGAGTTCGCCTCATAGCCAACCACCCTATAAAACGGAGTCACCTAGTGCAG”, the binding signal was 8650 fluorescence intensity (a.u.). As for “AGGGGATACTTTGTTTTGATTGGATTTGGAACTCGATGACCGGAGTCACCTAGTGCAG”, the binding signal is 8130 fluorescence intensity (a.u.). To “ACCAAATAGATTTCCTGCACTGGAATCATTCTGCACAATACGGAGTCACCTAGTGCAG” belongs 8140 fluorescence intensity (a.u.); to “TTGCCACCGATACCCCTACATGCCTCTCCTCTACCATTTCCGGAGTCACCTAGTGCAG”, 8210 fluorescence intensity (a.u.). As to “ATTTTATTTGTGTTGTGATTTCACTTTCCCTGTTTTTGTGCGGAGTCACCTAGTGCAG”, the binding signal was 10800 fluorescence intensity (a.u.). The value for “GTGGTTTGTGATGAAATGTAGTAATGTTCTTGTAATTTGTCGGAGTCACCTAGTGCAG” was 8370 fluorescence intensity (a.u.); that for “GGCCCAGTTTAGTCTAGAACTTTTCTTTTTTCTTTTTTTTCGGAGTCACCTAGTGCAG” was 11200 fluorescence intensity (a.u.).
